These are yes or no findings as the source states them, for the method shown. Some binding calls cover weakened binding; strength is not graded here.
Biological target: T1, recombinant endonuclein (human, UniProt Q13610 2-501)
T1 construct: human endonuclein, coding region Asn2-Ser501 of the 2309.2 cDNA, in the vector pT7-PL; also called IEF SSP 9502; PWP1 (yeast homologue's name)
Assay: SPR; BIAcore 2000; endonuclein amine-coupled to a CM5 chip (3302 RU); analytes at 1 μM or 5 μM in 10 mM Hepes, 150 mM NaCl, 5 mM CaCl2, 1 mM EGTA, pH 7.4, 0.005% P20; control flow channel subtracted; both purified

Sequences of proteins named here, by UniProt entry; tags and fusion partners are left off. Residues count along the entry.
UniProt G3I8R9, residues 19-654: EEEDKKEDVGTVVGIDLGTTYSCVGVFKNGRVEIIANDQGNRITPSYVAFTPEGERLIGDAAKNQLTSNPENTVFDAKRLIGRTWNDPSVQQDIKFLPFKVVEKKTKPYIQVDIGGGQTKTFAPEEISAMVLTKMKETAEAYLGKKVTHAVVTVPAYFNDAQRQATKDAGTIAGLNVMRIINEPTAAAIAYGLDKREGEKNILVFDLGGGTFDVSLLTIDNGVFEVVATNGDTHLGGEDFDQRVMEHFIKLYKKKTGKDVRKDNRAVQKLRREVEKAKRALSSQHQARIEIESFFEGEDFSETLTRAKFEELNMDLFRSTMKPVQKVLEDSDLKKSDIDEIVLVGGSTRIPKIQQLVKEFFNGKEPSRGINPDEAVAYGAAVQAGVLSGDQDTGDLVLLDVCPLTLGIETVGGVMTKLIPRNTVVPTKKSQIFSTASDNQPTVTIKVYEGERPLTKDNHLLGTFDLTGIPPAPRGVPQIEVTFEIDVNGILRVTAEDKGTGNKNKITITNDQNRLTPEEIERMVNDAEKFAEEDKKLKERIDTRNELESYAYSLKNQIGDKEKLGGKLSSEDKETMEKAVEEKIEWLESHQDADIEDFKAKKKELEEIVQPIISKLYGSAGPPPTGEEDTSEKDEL

For “recombinant hamster BiP/Grp78 (from UniProt G3I8R9 19-654)”, the binding was “binds”.

— PMC2810291, “Identification and characterization of endonuclein binding proteins: evidence of modulatory effects on signal transduction and chaperone activity” (BMC Biochemistry, 2009)
